Some entries share one result that the patent states for a list of compounds.
molecular target: T1, TYK2 (Homo sapiens, UniProt P29597, E957D); experiment: TYK2 kinase activity inhibition assay (Ba/F3-FL-TYK2-E957D cell proliferation, CellTiter-Glo); format: cell-based; conditions: Ba/F3-FL-TYK2-E957D cell IC50 relative to BMS-986165
T1 construct: host or cells: Ba/F3 (murine B lymphocytes)
Experimental: The TYK2 kinase gene was introduced into wild-type murine-derived B lymphocytes (BaF3) to construct the Ba/F3-FL-TYK2-E957D stable cell line.
In this experiment, the inhibitory effect of the compounds on the proliferation of Ba/F3-FL-TYK2-E957D cells were tested, apoptosis was detected, and the IC50 value was calculated. The inhibitory activity of the compounds against TYK2 kinase was evaluated based on the IC50 value.
The tested compounds, powder and stored at room temperature, were prepared into 10 mM stock solution with DMSO and stored at −20° C. away from light for use.
Compounds were prepared into dilute solutions which was 1000 times of the final concentration. The compound was prepared into 20-times of the final concentration by diluting the compound with culture medium. 2 ul of 1000-times compound was added to per well to 98 ul of culture medium.
Cells (provided by Sundia Pharmaceutical Technology (Shanghai) Co., Ltd.) were resuspended and counted using an automated cell counter. The cell suspension was diluted to the desired density based on BaF3 seeding density of 2000 cells per well. Each well was plated with 95 ul of cells and incubated at 37° C. for stable equilibrium. 5 ul of 20-times compound was added to each well, with the wells to which the same volume of DMSO was added as a control.
The cell plate was equilibrated to room temperature. 40 ul CellTiter-Glo® Reagent was added to each well, shaken for 2 minutes and allowed to stand for 10 minutes. Detected with SpectraMax Paradigm.
• (1) IC50 was calculated using GraphPad Prism 5. • (2) % Inh=(Max signal−Compound signal)/(Max signal−Min signal)×100. • (3) Max signal was the positive control well with only the same volume of DMSO as the compound. • (4) Min signal was the negative control well with only the culture medium.

By UniProt entry, the sequences of proteins in these tests, tags left out.
UniProt P29597, whole entry E957D: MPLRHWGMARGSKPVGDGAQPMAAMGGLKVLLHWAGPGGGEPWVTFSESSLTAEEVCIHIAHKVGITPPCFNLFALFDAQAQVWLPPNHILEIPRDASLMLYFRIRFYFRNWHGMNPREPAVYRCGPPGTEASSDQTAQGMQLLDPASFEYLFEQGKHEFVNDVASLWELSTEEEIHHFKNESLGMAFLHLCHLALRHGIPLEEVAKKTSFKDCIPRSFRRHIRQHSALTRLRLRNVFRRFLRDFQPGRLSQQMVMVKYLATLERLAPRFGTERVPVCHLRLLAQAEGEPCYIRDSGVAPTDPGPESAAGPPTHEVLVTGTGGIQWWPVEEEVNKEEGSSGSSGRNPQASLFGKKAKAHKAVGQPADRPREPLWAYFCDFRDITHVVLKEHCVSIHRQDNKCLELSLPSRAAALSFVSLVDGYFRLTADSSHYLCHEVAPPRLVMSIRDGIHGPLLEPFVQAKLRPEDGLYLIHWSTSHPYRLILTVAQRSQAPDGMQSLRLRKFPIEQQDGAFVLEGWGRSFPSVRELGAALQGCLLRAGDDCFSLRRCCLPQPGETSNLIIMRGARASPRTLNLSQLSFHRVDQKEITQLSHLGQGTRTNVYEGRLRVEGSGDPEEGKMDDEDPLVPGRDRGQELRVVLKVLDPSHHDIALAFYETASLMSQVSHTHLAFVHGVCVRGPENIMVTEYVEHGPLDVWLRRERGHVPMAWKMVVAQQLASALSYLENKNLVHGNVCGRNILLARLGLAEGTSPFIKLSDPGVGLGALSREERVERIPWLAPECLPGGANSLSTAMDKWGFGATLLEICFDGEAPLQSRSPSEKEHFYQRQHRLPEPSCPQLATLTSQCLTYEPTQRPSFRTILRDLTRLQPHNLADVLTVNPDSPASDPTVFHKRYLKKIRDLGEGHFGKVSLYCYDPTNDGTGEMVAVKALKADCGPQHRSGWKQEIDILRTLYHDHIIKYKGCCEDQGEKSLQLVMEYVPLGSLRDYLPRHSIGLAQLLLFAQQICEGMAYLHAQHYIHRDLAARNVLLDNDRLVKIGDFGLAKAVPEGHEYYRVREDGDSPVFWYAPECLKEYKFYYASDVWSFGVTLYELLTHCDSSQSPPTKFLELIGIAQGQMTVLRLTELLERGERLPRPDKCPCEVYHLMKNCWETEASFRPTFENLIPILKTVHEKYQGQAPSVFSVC

Structure (SMILES) | increase in TYK2 inhibitory activity over BMS-986165
CN=S(C)(=O)c1cc2c(Cl)c[nH]c2nc1Nc1cc(NC(=O)C2CC2)nnc1C(=O)NC (centres unmarked) [Example 32, 4-((3-chloro-5-(N,S-dimethylsulfoximino)-1H-pyrrolo[2,3-b]pyridin-6-yl)amino)-6-(cyclopropylamido)-N-methylpyridazine-3-carboxamide] | 4- to 7 fold
[2H]C([2H])([2H])N=[S@](C)(=O)c1cc(Cl)c(N)nc1Nc1cc(NC(=O)C2CC2)nnc1C(=O)NC([2H])([2H])[2H] [Example 40, (R)-4-((6-amino-5-chloro-3-(S-methyl-N-(methyl-d3)sulfonylimino)pyridin-2-yl)amino)-6-(cyclopropylcarboxamide)-N-(methyl-d3)pyridazine-3-carboxamide] | 4- to 7 fold
[2H]C([2H])([2H])N=[S@](C)(=O)c1cc(C=C)c(N)nc1Nc1cc(NC(=O)C2CC2)nnc1C(=O)NC([2H])([2H])[2H] [Example 44, (R)-4-((6-amino-3-(S-methyl-N-(methyl-d3)sulfonylimino)-5-vinylpyridin-2-yl)amino)-6-(cyclopropylcarboxamide)-N-(methyl-d3)pyridazine-3-carboxamide] | 4- to 7 fold
[2H]C([2H])([2H])N=[S@](C)(=O)c1cc(C#CC)c(N)nc1Nc1cc(NC(=O)C2CC2)nnc1C(=O)NC([2H])([2H])[2H] [Example 45, (R)-4-((6-amino-3-(S-methyl-N-(methyl-d3)sulfonylimino)-5-(propynyl-1-yl)pyridin-2-yl)amino)-6-(cyclopropylcarboxamide)-N-(methyl-d3)pyridazine-3-carboxamide] | more than 20 fold
[2H]C([2H])([2H])N=[S@](C)(=O)c1cc(C#CC2CC2)c(N)nc1Nc1cc(NC(=O)C2CC2)nnc1C(=O)NC([2H])([2H])[2H] [Example 46] | more than 20 fold
